# In PubChem BioAssay AID248 (DTP/NCI, 2004):
# The list shows only some results of the screen, not a fair sample: its compounds were picked by chemical class. Not every dose and run of a compound is shown. T/C: endpoint of the treated group in % of that of the vehicle group. Some doses have a count of surviving animals in place of a T/C: the source holds a T/C of zero for them, seemingly a mark for toxic or unscored doses. Some survivor counts are full or nearly so, which does not show that the dose was tolerated: the source hardly ever lists a survival T/C far under the control, and the zero likely stands for such cases as well. Counts of survivors are from the toxicity check (mostly the fifth day) where no day follows; animals may have died later. Schedules are NCI's codes, taken here to give the interval after Q, in days (D) or hours (H), and the number of doses after X. Some entries were tested several times; the results are listed from low to high. Where survival is the endpoint, this PubChem deposit counts one and a half times the control or more as active, and values a quarter to a half above the control carry no call in these data; other NCI protocols may use other cut-offs. Some entries show no survivor count and are marked so; the dose need not have been tolerated. Some schedules carry Z or #; the key to these is not given. Some T/C values carry the count of animals alive at the toxicity check (mostly the fifth day); without a count or a note in brackets, all were alive then.
# System: L1210 leukemia ip in BDF1 mice, survival T/C
# Test: NCI In Vivo Anticancer Drug Screen. Data for tumor model L1210 Leukemia (intraperitoneal) in B6D2F1 (BDF1) mice
# Settings: higher T/C = longer survival
# [1] = T/C endpoint: mean survival time, dose: 100.0 mg/kg/injection, schedule: Q04DX003 (ip), vehicle: saline with Tween-80
# [2] = T/C endpoint: mean survival time, dose: 200.0 mg/kg/injection, schedule: Q04DX003 (ip), vehicle: saline with Tween-80
# [3] = T/C endpoint: mean survival time, dose: 400.0 mg/kg/injection, schedule: Q04DX003 (ip), vehicle: saline with Tween-80
# [4] = T/C endpoint: mean survival time, dose: 200.0 mg/kg/injection, schedule: Q01DX001 (ip), vehicle: saline
# [5] = T/C endpoint: mean survival time, dose: 300.0 mg/kg/injection, schedule: Q01DX001 (ip), vehicle: saline
smiles,measurement,setting,value
O=C(NCC(=O)N(CCCl)CCCl)Oc1ccccc1,T/C,"T/C endpoint: mean survival time, dose: 50.0 mg/kg/injection, schedule: Q01DX001 (ip), vehicle: carboxymethylcellulose (CMC)",111 % of control
same,T/C,"T/C endpoint: mean survival time, dose: 100.0 mg/kg/injection, schedule: Q01DX001 (ip), vehicle: carboxymethylcellulose (CMC)",111 % of control
same,T/C,"T/C endpoint: mean survival time, dose: 200.0 mg/kg/injection, schedule: Q01DX001 (ip), vehicle: carboxymethylcellulose (CMC)",94 % of control
same,T/C,"T/C endpoint: mean survival time, dose: 400.0 mg/kg/injection, schedule: Q01DX001 (ip), vehicle: carboxymethylcellulose (CMC)",97 % of control
Cc1ccc(C(=O)OCCNCCCl)cc1,T/C,"T/C endpoint: median survival time, dose: 100.0 mg/kg/injection, schedule: Q01DX009 (ip), vehicle: Klucel (hydroxypropylcellulose) (HPC)",105 % of control [5 of 6 alive]
same,T/C,"T/C endpoint: median survival time, dose: 200.0 mg/kg/injection, schedule: Q01DX009 (ip), vehicle: Klucel (hydroxypropylcellulose) (HPC)",100 % of control
same,survivor count,"T/C endpoint: median survival time, dose: 400.0 mg/kg/injection, schedule: Q01DX009 (ip), vehicle: Klucel (hydroxypropylcellulose) (HPC)",3 of 6
CCN(CC)P1OCCO1,T/C,[1],96 % of control
same,T/C,[2],97 % of control
same,T/C,[3],100 % of control
N/C(=N\[N+](=O)[O-])N(CCO[N+](=O)[O-])N=O,T/C,"T/C endpoint: mean survival time, dose: 2.7 mg/kg/injection, schedule: Q01DX Z (ip), vehicle: methylcellulose (MC)",138 % of control [survivor count not shown]
same,T/C,"T/C endpoint: mean survival time, dose: 4.0 mg/kg/injection, schedule: Q01DX Z (ip), vehicle: methylcellulose (MC)",166 % of control [survivor count not shown]
same,T/C,"T/C endpoint: mean survival time, dose: 6.0 mg/kg/injection, schedule: Q01DX Z (ip), vehicle: methylcellulose (MC)",141 % of control [survivor count not shown]
same,T/C,"T/C endpoint: mean survival time, dose: 9.0 mg/kg/injection, schedule: Q01DX Z (ip), vehicle: methylcellulose (MC)",135 % of control [survivor count not shown]
same,T/C,"T/C endpoint: mean survival time, dose: 13.0 mg/kg/injection, schedule: Q01DX Z (ip), vehicle: methylcellulose (MC)",151 % of control [survivor count not shown]
same,T/C,"T/C endpoint: mean survival time, dose: 20.0 mg/kg/injection, schedule: Q01DX Z (ip), vehicle: methylcellulose (MC)",133 % of control [survivor count not shown]
same,T/C,"T/C endpoint: mean survival time, dose: 30.0 mg/kg/injection, schedule: Q01DX Z (ip), vehicle: methylcellulose (MC)",125 % of control [survivor count not shown]
NP(=O)(O)N(CCCl)CCCl,T/C,"T/C endpoint: mean survival time, dose: 15.0 mg/kg/injection, schedule: Q01DX009 (ip), vehicle: saline",106 % of control
same,T/C,"T/C endpoint: mean survival time, dose: 30.0 mg/kg/injection, schedule: Q01DX009 (ip), vehicle: saline",114 % of control
same,T/C,"T/C endpoint: mean survival time, dose: 58.0 mg/kg/injection, schedule: Q01DX009 (ip), vehicle: saline",130 % of control
same,T/C,"T/C endpoint: mean survival time, dose: 88.0 mg/kg/injection, schedule: Q01DX001 (ip), vehicle: saline",112 % of control
same,T/C,"T/C endpoint: mean survival time, dose: 88.0 mg/kg/injection, schedule: Q01DX009 (ip), vehicle: saline",121 % of control
same,T/C,"T/C endpoint: mean survival time, dose: 100.0 mg/kg/injection, schedule: Q01DX001 (ip), vehicle: saline",103 and 114 % of control
same,T/C,"T/C endpoint: mean survival time, dose: 133.0 mg/kg/injection, schedule: Q01DX001 (ip), vehicle: saline",122 % of control
same,T/C,"T/C endpoint: mean survival time, dose: 133.0 mg/kg/injection, schedule: Q01DX009 (ip), vehicle: saline",113 % of control [5 of 6 alive]
same,T/C,[4],130 [3 of 4 alive] and 130 % of control [5 of 6 alive]
same,survivor count,[4],2 of 6
same,survivor count,"T/C endpoint: mean survival time, dose: 200.0 mg/kg/injection, schedule: Q01DX009 (ip), vehicle: saline",3 of 6
same,survivor count,[5],1 of 6
same,survivor count,"T/C endpoint: mean survival time, dose: 400.0 mg/kg/injection, schedule: Q01DX001 (ip), vehicle: saline",0 of 6 and 1 of 4
same,T/C,"T/C endpoint: median survival time, dose: 12.5 mg/kg/injection, schedule: Q01DX009 (ip), vehicle: saline",127 % of control
same,T/C,"T/C endpoint: median survival time, dose: 25.0 mg/kg/injection, schedule: Q01DX009 (ip), vehicle: saline",144 % of control
same,T/C,"T/C endpoint: median survival time, dose: 50.0 mg/kg/injection, schedule: Q01DX001 (ip), vehicle: saline",127 % of control
same,T/C,"T/C endpoint: median survival time, dose: 50.0 mg/kg/injection, schedule: Q01DX009 (ip), vehicle: saline",188 % of control
same,T/C,"T/C endpoint: median survival time, dose: 100.0 mg/kg/injection, schedule: Q01DX001 (ip), vehicle: saline",144 % of control
same,T/C,"T/C endpoint: median survival time, dose: 100.0 mg/kg/injection, schedule: Q01DX009 (ip), vehicle: saline",133 % of control
same,T/C,"T/C endpoint: median survival time, dose: 200.0 mg/kg/injection, schedule: Q01DX001 (ip), vehicle: saline",122 % of control [7 of 8 alive]
same,survivor count,"T/C endpoint: median survival time, dose: 400.0 mg/kg/injection, schedule: Q01DX001 (ip), vehicle: saline",1 of 8
O=P(NC(=S)NN1CCCCC1)(Oc1ccccc1)Oc1ccccc1,T/C,"T/C endpoint: mean survival time, dose: 100.0 mg/kg/injection, schedule: Q01DX009 (ip), vehicle: carboxymethylcellulose (CMC)",106 % of control
same,T/C,"T/C endpoint: mean survival time, dose: 200.0 mg/kg/injection, schedule: Q01DX009 (ip), vehicle: carboxymethylcellulose (CMC)",88 % of control
same,T/C,"T/C endpoint: mean survival time, dose: 400.0 mg/kg/injection, schedule: Q01DX009 (ip), vehicle: carboxymethylcellulose (CMC)",91 % of control
O=[N+]([O-])c1cc([N+](=O)[O-])c(Nc2c([N+](=O)[O-])cc([N+](=O)[O-])cc2[N+](=O)[O-])c([N+](=O)[O-])c1,T/C,"T/C endpoint: mean survival time, dose: 100.0 mg/kg/injection, schedule: Q04DX003 (ip), vehicle: Klucel (hydroxypropylcellulose) (HPC)",97 % of control [survivor count not shown]
same,T/C,"T/C endpoint: mean survival time, dose: 200.0 mg/kg/injection, schedule: Q04DX003 (ip), vehicle: Klucel (hydroxypropylcellulose) (HPC)",100 % of control [survivor count not shown]
[N-]=[N+]=NC(=O)c1cc(Cl)cc(C(=O)N=[N+]=[N-])n1,T/C,"T/C endpoint: mean survival time, dose: 25.0 mg/kg/injection, schedule: Q01DX009 (ip), vehicle: saline with Tween-80",92 % of control [5 of 6 alive]
same,T/C,"T/C endpoint: mean survival time, dose: 25.0 mg/kg/injection, schedule: Q04DX003 (ip), vehicle: saline with Tween-80",90 % of control
same,T/C,"T/C endpoint: mean survival time, dose: 50.0 mg/kg/injection, schedule: Q01DX009 (ip), vehicle: saline with Tween-80",87 % of control [4 of 6 alive]
same,T/C,"T/C endpoint: mean survival time, dose: 50.0 mg/kg/injection, schedule: Q04DX003 (ip), vehicle: saline with Tween-80",89 % of control
same,survivor count,"T/C endpoint: mean survival time, dose: 100.0 mg/kg/injection, schedule: Q01DX009 (ip), vehicle: saline with Tween-80",0 of 6
same,T/C,[1],97 % of control [4 of 6 alive]
same,survivor count,[1],4 of 6
same,survivor count,[2],3 of 6
same,survivor count,[3],0 of 6
CN(C)P(=O)(Nc1ccccn1)N(C)C,T/C,"T/C endpoint: mean survival time, dose: 75.0 mg/kg/injection, schedule: Q01DX001 (ip), vehicle: saline",96 % of control
same,T/C,"T/C endpoint: mean survival time, dose: 150.0 mg/kg/injection, schedule: Q01DX001 (ip), vehicle: saline",101 % of control [5 of 6 alive]
same,survivor count,[5],0 of 6
COC(=O)C(O)(c1ccccc1)c1ccccc1,T/C,"T/C endpoint: mean survival time, dose: 50.0 mg/kg/injection, schedule: Q01DX001 (ip), vehicle: other",100 % of control [survivor count not shown]
same,T/C,"T/C endpoint: mean survival time, dose: 100.0 mg/kg/injection, schedule: Q01DX001 (ip), vehicle: other",92 % of control [survivor count not shown]
same,T/C,"T/C endpoint: mean survival time, dose: 200.0 mg/kg/injection, schedule: Q01DX001 (ip), vehicle: other",100 % of control [survivor count not shown]
same,T/C,"T/C endpoint: mean survival time, dose: 400.0 mg/kg/injection, schedule: Q01DX001 (ip), vehicle: other",103 % of control [survivor count not shown]
COP(N1CC1)N1CC1.COP(OC)N1CC1,T/C,"T/C endpoint: mean survival time, dose: 10.0 mg/kg/injection, schedule: Q04DX003 (ip), vehicle: saline",117 % of control
same,T/C,"T/C endpoint: mean survival time, dose: 20.0 mg/kg/injection, schedule: Q04DX003 (ip), vehicle: saline",120 % of control
same,survivor count,"T/C endpoint: mean survival time, dose: 40.0 mg/kg/injection, schedule: Q04DX003 (ip), vehicle: saline",3 of 6
ClCCNc1nc2cc(Br)ccc2c2ccc(Br)cc12,T/C,"T/C endpoint: mean survival time, dose: 75.0 mg/kg/injection, schedule: Q01DX001 (ip), vehicle: carboxymethylcellulose (CMC)",104 % of control
same,T/C,"T/C endpoint: mean survival time, dose: 75.0 mg/kg/injection, schedule: Q04DX003 (ip), vehicle: Klucel (hydroxypropylcellulose) (HPC)",107 % of control
same,T/C,"T/C endpoint: mean survival time, dose: 150.0 mg/kg/injection, schedule: Q01DX001 (ip), vehicle: carboxymethylcellulose (CMC)",106 % of control
same,T/C,"T/C endpoint: mean survival time, dose: 150.0 mg/kg/injection, schedule: Q04DX003 (ip), vehicle: Klucel (hydroxypropylcellulose) (HPC)",100 % of control
same,T/C,"T/C endpoint: mean survival time, dose: 300.0 mg/kg/injection, schedule: Q01DX001 (ip), vehicle: carboxymethylcellulose (CMC)",102 % of control [4 of 6 alive]
same,T/C,"T/C endpoint: mean survival time, dose: 300.0 mg/kg/injection, schedule: Q04DX003 (ip), vehicle: Klucel (hydroxypropylcellulose) (HPC)",100 % of control
